Results are given in words; binding and its absence hold for the method and conditions named. Some binding calls cover weakened binding; strength is not graded here.
Assays:
synthetic peptide p344 [1] = biological target: T1, synthetic peptide p344; test: ELISA; peptides p344 or p333 immobilised (2 ug/mL in PBS pH 9.5) on glutaraldehyde-treated 96-well plates; CTLA-4Fc or B7-1Fc added at different concentrations, 1 h at 37 C; detected with anti-human IgG HRP; both purified
T1 sequence (peptide): ARHPSWYRPFEGCG

Amino acid sequences for entries named in this document (tags omitted). Residues count along the entry.
UniProt P16410, residues 36-161: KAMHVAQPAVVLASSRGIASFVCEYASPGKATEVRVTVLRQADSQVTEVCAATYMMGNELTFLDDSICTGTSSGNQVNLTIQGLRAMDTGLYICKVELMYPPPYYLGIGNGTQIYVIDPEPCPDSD

control peptide p333 [2] = biological target: T2, control peptide p333; test: as above
T2 sequence (peptide): EGLNRPSGGCG

synthetic peptide p344 [3] = biological target: T1, synthetic peptide p344; test: peptide or protein array; CTLA-4Fc applied on microarrays of 330034 peptides with random sequences; detected with fluorescence-labeled mAb against human IgG; both purified
control peptide p333 [4] = biological target: T2, control peptide p333; test: as above

recombinant fusion protein B7-1Fc (from UniProt P33681 35-242) (Fc fusion)
binding (synthetic peptide p344 [1]): no binding
binding (control peptide p333 [2]): no binding

recombinant fusion protein CTLA-4Fc (from UniProt P16410 36-161) (Fc fusion)
binding (synthetic peptide p344 [1]): binds
binding (control peptide p333 [2]): no binding
binding (synthetic peptide p344 [3]): binds
binding (control peptide p333 [4]): no binding
